Test results: publication PMC6587271
Results are given in words; binding and its absence hold for the method and conditions named. In cells and extracts the contact can be indirect. Some results given as binding are weak or reduced against the parent protein; the word gives no strength. For part of these data: Where a sequence is shown, tags or fusion partners need not be part of it.

Protein sequences, listed by entry. Tags and fused reporters are not part of them. Residues count along the entry.
UniProt O95831, residues 102-613: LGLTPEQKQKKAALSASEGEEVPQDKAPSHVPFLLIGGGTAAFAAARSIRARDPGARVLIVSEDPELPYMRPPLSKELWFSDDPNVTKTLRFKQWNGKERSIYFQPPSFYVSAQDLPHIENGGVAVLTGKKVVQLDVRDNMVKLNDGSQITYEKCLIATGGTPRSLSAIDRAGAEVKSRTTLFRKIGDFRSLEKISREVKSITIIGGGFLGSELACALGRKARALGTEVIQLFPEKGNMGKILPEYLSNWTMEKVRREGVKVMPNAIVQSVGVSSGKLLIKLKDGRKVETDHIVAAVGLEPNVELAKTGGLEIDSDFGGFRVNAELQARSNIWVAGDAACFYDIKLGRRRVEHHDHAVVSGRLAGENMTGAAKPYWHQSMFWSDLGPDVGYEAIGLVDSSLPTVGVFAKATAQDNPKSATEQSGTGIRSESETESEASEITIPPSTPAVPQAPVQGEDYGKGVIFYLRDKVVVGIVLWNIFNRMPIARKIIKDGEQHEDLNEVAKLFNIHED

Key:
[1] = biological target: T1, HA-S-tagged CHTM1 (Coiled-coil Helix Tumor and Metabolism 1), exogenous, in 293T cells (human) (UniProt Q9BSY4); assay: pull-down; S-tag pull-down of exogenous HA-tagged CHTM1 from 293T cells; endogenous AIF1 detected by Western blot
T1 sequence: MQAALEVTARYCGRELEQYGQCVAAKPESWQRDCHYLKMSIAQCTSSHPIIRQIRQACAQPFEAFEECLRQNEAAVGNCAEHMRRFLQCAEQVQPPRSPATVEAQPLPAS

[2] = biological target: T2, CHTM1 (Coiled-coil Helix Tumor and Metabolism 1), endogenous in A549 cells (human (endogenous in A549)) (UniProt Q9BSY4); assay: co-IP; immunoprecipitation from A549 cells, endogenous CHTM1 and endogenous AIF1, Western blot
T2 sequence: T1 sequence

[3] = biological target: T3, HA-S-tagged CHTM1, transiently transfected in A549 cells (human) (UniProt Q9BSY4); assay: pull-down; S-tag pull-down from A549 cells transiently transfected with HA-S-tagged CHTM1 or vector-only, cultured in the presence or absence of glucose/glutamine for 4 h; Western blot
T3 sequence: T1 sequence

Apoptosis Inducing Factor 1 (AIF1), endogenous in 293T cells (from UniProt O95831 102-613)
binding [1]: binds

Apoptosis Inducing Factor 1 (AIF1), endogenous in A549 cells (from UniProt O95831 102-613)
binding [2]: binds | binding [3]: binds
